The assay has as its target Ras homolog enriched in brain (Rheb) (human (endogenous in HeLa)) (UniProt Q15382). In words: co-IP; endogenous Rheb immunoprecipitated from HeLa lysate (750-1000 ug protein, 2 ug Rheb-specific antibody, overnight at 4 °C, magnetic protein G beads) and probed for SIRT2 by western blot; lysis buffer 20 mM Tris-HCl pH 7.5, 150 mM NaCl, 1 mM EDTA, 1 mM EGTA, 1% Triton X100; basal conditions.

Results are given in words; binding and its absence hold for the method and conditions named. In cells and extracts the contact can be indirect. Some binding calls cover weakened binding; strength is not graded here.

B1: SIRT2 (protein, UniProt Q8IXJ6 1-389)
chain: MAEPDPSHPLETQAGKVQEAQDSDSDSEGGAAGGEADMDFLRNLFSQTLSLGSQKERLLDELTLEGVARYMQSERCRRVICLVGAGISTSAGIPDFRSPSTGLYDNLEKYHLPYPEAIFEISYFKKHPEPFFALAKELYPGQFKPTICHYFMRLLKDKGLLLRCYTQNIDTLERIAGLEQEDLVEAHGTFYTSHCVSASCRHEYPLSWMKEKIFSEVTPKCEDCQSLVKPDIVFFGESLPARFFSCMQSDFLKVDLLLVMGTSLQVQPFASLISKAPLSTPRLLINKEKAGQSDPFLGMIMGLGGGMDFDSKKAYRDVAWLGECDQGCLALAELLGWKKELEDLVRREHASIDAQSGAGVPNPSTSASPKKSPPPAKDEARTTEREKPQ
As to B1, the binding result is reported as “binds”.

These data come from paper PMC13261059.
